Reference: PubChem BioAssay AID2685 (National Center for Advancing Translational Sciences (NCATS), 2010)
The list shows a part of the results. The main result of the screen is listed elsewhere. These columns were measured beside it and carry no call. Most of these compounds were active or inconclusive in the main read-out, so they are no random draw. Words in brackets tell the shape of the fitted curve; partial curves, single points and poor fits give uncertain potencies.

Assay: qHTS Assay for Lipid Storage Modulators in Drosophila S3 Cells;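 as to cell number change: cells counted by Cell Tracker Red CMTPX staining in the red channel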
Details: BODIPY lipid droplet fluorescence, 18-24 h; for cell number change: measured here: cell count max response, cells fed with added oleic acid
How it was run: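 Laser-scanning cytometry quantifies lipid droplet accumulation (500–530 nm total intensity; droplet/cell object ratio) in oleic acid-fed (400 uM added) Drosophila S3 cells treated with a concentration series. 20 uM Triacsin C defined 100% inhibition.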

[1] = measured here: lipid fluorescence (Fed channel) AC50, cells fed with added oleic acid
[2] = measured here: cell number channel AC50, cells fed with added oleic acid

CCOC(=O)COc1coc(CN2CCN(c3ccc(F)cc3)CC2)cc1=O
cell number change: -5.38% | AC50 [1]: 6510 nM [rising, single point]

Clc1cccc(-c2cc3nc4c(c(N5CCOCC5)n3n2)CCCC4)c1
cell number change: 4.28% | AC50 [1]: 580 nM [rising, full curve]

CCOC(=O)C1=C(C)N(c2ccc(OC)cc2)C(=O)/C1=C\c1cccs1
cell number change: 3.93% | AC50 [1]: 2590 nM [rising, single point]

COc1cccc(CNC(=O)CCNS(=O)(=O)c2cccc3nsnc23)c1
cell number change: 37.3% | AC50 [2]: 1030 nM [rising, full curve, poor fit] | AC50 [1]: 206 nM [rising, full curve, poor fit]

CC1CN(S(=O)(=O)c2ccc(Cl)c(S(=O)(=O)N3CC(C)OC(C)C3)c2)CC(C)O1 (stereo not drawn)
cell number change: 0.942% | AC50 [1]: 32600 nM [falling, single point]

CC(=O)Nc1ccc(SCC(=O)N(CCC#N)c2ccc(C)cc2)cc1
cell number change: -18.7% | AC50 [1]: 4.61 nM [falling, full curve, poor fit]

CCOc1ccc(CCNC(=O)COC(=O)C2CCN(c3ccc(C(F)(F)F)cn3)CC2)cc1OCC
cell number change: 0.314% | AC50 [1]: 16400 nM [falling, single point]

c1ccc2c(c1)sc1nnnn12
cell number change: -17.3% | AC50 [2]: 651 nM [falling, full curve, poor fit] | AC50 [1]: 461 nM [falling, single point]

COc1ccc(Nc2cc(C)nc(NCc3ccccc3)n2)cc1
cell number change: -33.6% | AC50 [2]: 16400 nM [falling, single point] | AC50 [1]: 23100 nM [falling, single point]

CCCCNC(=O)Nc1nnc(-c2ccc(Cl)cc2)o1
cell number change: -6.18% | AC50 [1]: 20.6 nM [rising, full curve, poor fit]

O=S(=O)(NC1=NCCCCC1)c1ccc2ccccc2c1
cell number change: 18%

Cc1cnn(C(=O)c2cc(-c3ccccc3)nc3ccccc23)c1
cell number change: -97.8% | AC50 [2]: 32600 nM [falling, partial curve, poor fit]

Nc1ccc(C(=O)OCC(=O)Nc2ccc3c(c2)OCO3)cc1[N+](=O)[O-]
cell number change: 20%

Cc1ccc(S(=O)(=O)N2CCN(C(=O)COC(=O)Cc3ccc(Cl)cc3)CC2)c(C)c1
cell number change: 2.34% | AC50 [1]: 25900 nM [rising, partial curve, poor fit]

CCN(CC)S(=O)(=O)c1ccc(N2CCCCC2)c(NC(=O)C2CCN(C(=O)c3ccc(F)cc3)CC2)c1
cell number change: 36.9% | AC50 [2]: 1640 nM [rising, partial curve]

COc1ccc(OC)c(C(c2nnnn2C2CCCC2)N2CCN(c3ccccc3F)CC2)c1 (stereo not drawn)
cell number change: 25.5% | AC50 [2]: 4110 nM [rising, full curve, poor fit]
